{
  "source": "paper PMC8229129",
  "about": "“Local Colonic Administration of a Serine Protease Inhibitor Improves Post-Inflammatory Visceral Hypersensitivity in Rats” (Pharmaceutics, 2021)",
  "tested_on": "colonic compliance",
  "test": "Colonic compliance (pressure-volume curves)",
  "format": "in vivo, Sprague–Dawley rats",
  "conditions": "rats; for Effect on colonic compliance (intracolonic pressure at graded volumes of water): compared to vehicle, compliance increased",
  "data": [
    {"compound": "CC(=O)Nc1ccc(OP(=O)(Oc2ccc(NC(C)=O)cc2)C(Cc2ccc(N=C(N)N)cc2)NC(=O)OCc2ccccc2)cc1.Cl", "note": "(stereo not drawn) [UAMC-00050]", "values": [
      {"measurement": "Effect on colonic compliance", "setting": "0.1 mg/kg–1.0 mg/kg intracolonic", "result": "did not alter colonic compliance"},
      {"measurement": "Effect on colonic compliance (intracolonic pressure at graded volumes of water)", "setting": "2.5 mg/kg intracolonic", "result": "lower intracolonic pressures"},
      {"measurement": "Effect on colonic compliance (intracolonic pressure at graded volumes of water)", "setting": "5.0 mg/kg intracolonic", "result": "lower intracolonic pressures"}
    ]}
  ]
}
